These are yes or no findings as the source states them, for the method shown. Binding seen in cells or lysates may run through a third protein.
How the values were obtained:
[1] = substrate: T1, SSI (Oryza sativa subsp. indica cv. IR36 (endogenous in developing seeds)) (UniProt A2Y9M4); test: co-IP; soluble proteins of developing seeds of the be2b mutant at 5 DAF incubated with isozyme-specific antibodies and protein A magnetic beads; washed with PBS pH 7.4; Western blotting
T1 sequence: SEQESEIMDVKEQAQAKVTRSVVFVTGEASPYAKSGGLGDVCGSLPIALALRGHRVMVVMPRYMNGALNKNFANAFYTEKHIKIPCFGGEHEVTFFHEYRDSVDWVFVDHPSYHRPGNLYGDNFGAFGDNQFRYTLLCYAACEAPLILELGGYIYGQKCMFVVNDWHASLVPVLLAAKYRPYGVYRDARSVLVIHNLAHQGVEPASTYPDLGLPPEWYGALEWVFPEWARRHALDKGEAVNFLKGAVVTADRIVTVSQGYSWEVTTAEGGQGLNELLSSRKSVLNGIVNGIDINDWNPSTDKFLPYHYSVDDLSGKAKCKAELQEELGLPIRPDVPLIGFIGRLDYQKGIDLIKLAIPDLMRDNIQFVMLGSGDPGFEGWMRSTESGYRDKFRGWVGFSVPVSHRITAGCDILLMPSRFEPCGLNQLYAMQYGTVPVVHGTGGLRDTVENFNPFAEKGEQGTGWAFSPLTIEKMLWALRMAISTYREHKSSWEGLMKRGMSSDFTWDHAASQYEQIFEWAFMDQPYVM

[2] = molecular target: T2, SSIIa (Oryza sativa subsp. indica cv. IR36 (endogenous in developing seeds)) (UniProt P0C586); test: co-IP; soluble proteins of developing seeds of WT (IR36) at 5 DAF incubated with isozyme-specific antibodies and protein A magnetic beads; washed with PBS pH 7.4; Western blotting
T2 sequence: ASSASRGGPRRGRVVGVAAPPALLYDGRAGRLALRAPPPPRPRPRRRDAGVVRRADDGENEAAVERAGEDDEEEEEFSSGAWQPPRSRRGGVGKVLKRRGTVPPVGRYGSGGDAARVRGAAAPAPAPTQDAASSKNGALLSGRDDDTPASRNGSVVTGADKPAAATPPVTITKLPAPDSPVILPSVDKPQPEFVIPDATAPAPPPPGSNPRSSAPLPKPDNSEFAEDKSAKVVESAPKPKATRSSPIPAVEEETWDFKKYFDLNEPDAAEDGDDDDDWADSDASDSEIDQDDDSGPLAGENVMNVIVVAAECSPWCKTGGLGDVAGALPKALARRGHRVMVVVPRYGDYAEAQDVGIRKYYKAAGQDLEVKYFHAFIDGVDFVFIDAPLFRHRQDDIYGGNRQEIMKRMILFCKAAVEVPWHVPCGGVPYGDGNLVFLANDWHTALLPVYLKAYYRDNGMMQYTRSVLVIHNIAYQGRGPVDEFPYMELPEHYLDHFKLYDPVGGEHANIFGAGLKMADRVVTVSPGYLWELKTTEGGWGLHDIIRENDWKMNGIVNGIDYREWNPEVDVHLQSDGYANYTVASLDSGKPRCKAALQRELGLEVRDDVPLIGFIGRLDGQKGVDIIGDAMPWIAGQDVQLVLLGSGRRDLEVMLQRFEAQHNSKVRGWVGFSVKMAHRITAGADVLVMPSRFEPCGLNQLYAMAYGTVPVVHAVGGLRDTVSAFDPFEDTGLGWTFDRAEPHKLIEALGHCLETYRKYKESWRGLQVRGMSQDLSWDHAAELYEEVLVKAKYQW

[3] = substrate: T1, ; test: co-IP; soluble proteins of developing seeds of WT (IR36) at 15 DAF incubated with isozyme-specific antibodies and protein A magnetic beads; washed with PBS pH 7.4; Western blotting
[4] = substrate: T1, ; test: co-IP; soluble proteins of developing seeds of WT (IR36) at 5 DAF incubated with isozyme-specific antibodies and protein A magnetic beads; washed with PBS pH 7.4; Western blotting
[5] = molecular target: T3, BEI (Oryza sativa subsp. indica cv. IR36 (endogenous in developing seeds)) (UniProt Q01401); test: co-IP; soluble proteins of developing seeds of the be2b mutant at 5 DAF incubated with isozyme-specific antibodies and protein A magnetic beads; washed with PBS pH 7.4; Western blotting
T3 sequence: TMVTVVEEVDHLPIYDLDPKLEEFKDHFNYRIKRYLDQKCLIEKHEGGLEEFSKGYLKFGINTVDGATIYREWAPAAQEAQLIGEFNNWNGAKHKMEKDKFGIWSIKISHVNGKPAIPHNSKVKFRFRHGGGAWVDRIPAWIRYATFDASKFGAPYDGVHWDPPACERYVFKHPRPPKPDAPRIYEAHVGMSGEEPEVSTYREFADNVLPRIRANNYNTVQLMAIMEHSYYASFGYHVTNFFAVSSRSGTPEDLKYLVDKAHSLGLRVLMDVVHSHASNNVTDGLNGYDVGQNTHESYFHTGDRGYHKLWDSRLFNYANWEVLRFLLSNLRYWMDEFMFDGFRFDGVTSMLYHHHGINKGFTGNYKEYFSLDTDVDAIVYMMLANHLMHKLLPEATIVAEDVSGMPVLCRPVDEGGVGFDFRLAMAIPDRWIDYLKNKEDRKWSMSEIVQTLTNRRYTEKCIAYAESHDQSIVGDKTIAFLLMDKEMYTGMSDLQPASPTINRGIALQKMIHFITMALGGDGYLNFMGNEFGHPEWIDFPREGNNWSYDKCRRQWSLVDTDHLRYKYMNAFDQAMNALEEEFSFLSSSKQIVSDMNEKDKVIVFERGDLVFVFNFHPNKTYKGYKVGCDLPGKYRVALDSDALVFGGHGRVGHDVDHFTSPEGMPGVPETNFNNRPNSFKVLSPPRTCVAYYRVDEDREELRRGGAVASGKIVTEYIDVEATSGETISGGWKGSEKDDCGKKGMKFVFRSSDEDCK

[6] = molecular target: SSIIIa (Oryza sativa subsp. indica cv. IR36 (endogenous in developing seeds)); test: as above
[7] = molecular target: T2, SSIIa (Oryza sativa subsp. indica cv. IR36 (endogenous in developing seeds)); test: as above
[8] = substrate: T1, ; test: co-IP; soluble proteins of developing seeds of the be2b mutant at 15 DAF incubated with isozyme-specific antibodies and protein A magnetic beads; washed with PBS pH 7.4; Western blotting

Measured: binding

B1: ISA1 (enzyme, UniProt D0TZF0 55-803)
chain: SVASAVEVGVGEDEEEGVEEEEEEVEAVVMPERYALGGACRVLAGMPAPLGATALDGGVNFAVYSAGASAASLCLFTPDDLEADEVTEEVPLDPLFNRTGNVWHVFIEGELHNMLYGYRFDGMFAPHCGQYFDVSNVVVDPYAKAVISRGEYGVPGPGGDCWPQMAGMIPLPYSTFDWQGDLPLRYPQKDLVIYEMHLRGFTKHSSSNVEHPGTYIGAISKLDYLKELGVNCVELMPCHEFNELEYFSCSSKMNFWGYSTINFFSPMIRYSSGGIRNCGRDAINEFKTFVREAHKRGIEVIMDVVFNHTAEGNEKGPILSFRGIDNSTYYMLAPKGEFYNYSGCGNTFNCNHPVVREFIVDCLRYWVTEMHVDGFRFDLASIMTRGCSLWDPVNVYGSPVEGDMTTTGTPLATPPLIDMISNDPILGDVKLIAEAWDAGGLYQVGQFPHWKIWSEWNGKYRDIVRQFIKGTDGFAGGFAECLCGSPHLYQAGGRKPWHSINFVCAHDGFTLADLVTYNKKYNSSNGEDNRDGENHNLSWNCGEEGEFAGLSVKRLRKRQMRNFFVSLMVSQGVPMFYMGDEYGHTKGGNNNTYCHDHYVNYFRWDKKEESSDLQRFCSLMTKFRKQCESLGLADFPTAQRLHWHGHQPGKPDWSETSRFVAFSTKDETKGEIYVAFNASHLPAVVGLPERPGYRWEPLVDTGKPAPYDFLTDDLPDRAHAVHLFSHFLNSNLYPMLSYSSIILELQPDD
no binding: all assays above

— article PMC9501056
